According to PubChem BioAssay AID1439 (NMMLSC, 2008):
Out of some 220,000 compounds screened, about 770 (0.35%) were called active. Inconclusive results, whose numbers are uncertain, are shown with a selection of clear calls. No stated cut-off is given here; in the data, active means binding response below about 49% or above about 150%; inconclusive means no clear call, values can overlap the other calls; inactive means in between.

Sequences of proteins named here, by UniProt entry; tags and fusion partners are left off.
UniProt P09471, whole entry, looked up: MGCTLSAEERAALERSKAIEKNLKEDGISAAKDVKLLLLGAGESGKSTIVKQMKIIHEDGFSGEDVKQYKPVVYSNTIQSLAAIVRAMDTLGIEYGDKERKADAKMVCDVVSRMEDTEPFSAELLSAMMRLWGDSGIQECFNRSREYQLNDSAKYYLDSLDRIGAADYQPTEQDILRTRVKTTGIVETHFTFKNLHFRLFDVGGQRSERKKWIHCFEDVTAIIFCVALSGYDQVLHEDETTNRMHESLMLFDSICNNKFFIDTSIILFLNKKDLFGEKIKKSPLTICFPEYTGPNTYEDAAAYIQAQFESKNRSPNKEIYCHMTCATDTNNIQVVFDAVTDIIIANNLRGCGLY

The molecules below were run against Guanine nucleotide-binding protein G(o) subunit alpha (Homo sapiens) (UniProt P09471) (assay: RGS7-Galphao binding modulators, primary screen, biochemical, multiplexed bead flow cytometry (AID 1439;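 further: fluorescent Galphao held in activated GDP-AlF4 state binding bead-coupled RGS7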)). Details: at 10 µM, actives lie on both sides.

Structure (SMILES)	binding response (% of control)
O=C(Nc1ccc(Cl)cc1C(=O)N1CCCC1)c1cccc([N+](=O)[O-])c1	inactive: 99.7%
NC(=S)N/N=C/c1cn(CCC(=O)O)nc1-c1cccc(Br)c1	inconclusive: 103%
COC(=O)[C@@H](NC(=O)NC1CCCCC1C)C(C)C (some centres undefined)	inconclusive: 230%
CCCCc1ccc(NC(=O)CN2NS(=O)(=O)c3ccccc3C2=O)cc1	inactive: 88%
CC1(C)C(=O)Nc2ccccc2N1C(=O)Cn1ncc(Cl)c(Cl)c1=O	inconclusive: 173%
CCOC(=O)CSc1nc2c(c(=O)n(C)c(=O)n2C)n1CCCc1ccccc1	inactive: 109%
Nc1nc(Nc2cccc(F)c2)nc(NCc2ccco2)c1[N+](=O)[O-]	inconclusive: 89.9%
c1ccc(N2CC3CCc4ccccc4C3=N2)cc1 (centres undefined)	inconclusive: 107%
Cc1csc(NC(=O)CN2C(=O)c3ccccc3C2=O)c1C(N)=O	inconclusive: 124%
Cc1cccc(OCC(=O)Nc2cc(S(=O)(=O)N3CCCCC3)ccc2N2CCN(C)CC2)c1	inconclusive: 83.2%
Cc1cc2c(=O)oc(-c3ccccc3Br)nc2s1	inconclusive: 105%
CCC(=O)Nc1nc2ccc3sc(C)nc3c2s1	inconclusive: 110%
O=C(Nn1cnnc1)c1cc(-c2cccc(Br)c2)nc2ccccc12	inconclusive: 111%
COc1ccccc1Nc1nc2nonc2[nH]c1=O	inactive: 104%
CS(=O)(=O)N1CCC(Oc2ccccc2C(=O)NC(C2CC2)C2CC2)CC1	inactive: 101%
Cc1ccc(NC(=S)N2CCN(C(=O)c3ccccc3)CC2)c(C)c1	inconclusive: 108%
O=C(NC(=S)N1CCCCC1CO)C12CC3CC(CC(C3)C1)C2 (centres undefined)	inconclusive: 101%
COCC(=O)Nc1nnc(-c2ccc(C(C)(C)C)cc2)s1	inconclusive: 90.2%
CCOc1ccc(C(=O)Nc2ccc(N3CCN(C)CC3)cc2)cc1[N+](=O)[O-]	inconclusive: 118%
Cc1cc(C)cc(C(=O)NCC(=O)OCC(=O)NCC(F)(F)F)c1	inconclusive: 98.2%

Structure (SMILES)	binding response (% of control)
O=C(O)c1c2c(nc3ccc(S(=O)(=O)N4CCC(C(=O)NC5CCCCCC5)CC4)cc13)CCCC2	inactive: 96.1%
COC(=O)/C=C1\SC(N)=NC1=O	inconclusive: 221%
CNn1cnc2ccsc2c1=O	inconclusive: 189%
O=C(NC(=O)c1cc(OCC(F)(F)F)ccc1OCC(F)(F)F)Nc1ccccc1	inconclusive: 57%
C=C/C(C)=C/CC1C(=C)CCC2C(C)(C(=O)O)CCCC12C (centres undefined)	inconclusive: 127%
C=CC[n+]1ccn(-c2nc3ccccc3nc2[N-]S(=O)(=O)c2cccs2)c1	inconclusive: 99.8%
O=C(COC(=O)c1ccc[nH]c1=O)Nc1ccc2c(c1)OC(F)(F)O2	inconclusive: 78.7%
Cc1ccc(-c2nn3c(C)nnc3c3ccccc23)cc1S(=O)(=O)NC(C)(C)CO	inactive: 104%
COc1ccc(OC)c(-c2cc(C(=O)NCc3ccc(Cl)cc3)no2)c1	inactive: 106%
Cc1cc(N=Nc2c(O)c3ccccc3[nH]c2=O)ccc1N=Nc1ccc(C(=O)N(C)C)cc1	inconclusive: 111%
COc1nccc(C(F)(F)F)c1C(=O)NC(=O)Nc1ccccc1	inconclusive: 94.6%
COc1ccccc1-n1c(-c2ccccc2)c[nH]c1=S	inconclusive: 101%
Cn1nnnc1SCC(=O)Nc1ccc2c(c1)OCO2	inconclusive: 109%
O=C(Cn1c(=O)oc2ccccc21)NCCc1ccccc1Cl	inconclusive: 78.4%
CC(=O)Nc1nonc1NC(=O)c1ccc(C(C)(C)C)cc1	inactive: 97.6%
CCCNC(=O)c1ccc(S(N)(=O)=O)cc1	inconclusive: 113%
Cc1ccc(Cl)cc1NC(=O)N(C)CCO	inconclusive: 162%
CC(=O)Nc1sc2c(c1C(c1cccc(F)c1)N1CCN(CCO)CC1)CCCC2 (centres undefined)	inconclusive: 85.2%
Cc1cccc(C(C#N)c2ccc(Cl)nn2)c1 (centres undefined)	inconclusive: 106%
CCOC(=O)c1[nH]c2cc(OC)c(OC)cc2c1NC(=O)c1ccc2c(c1)OCO2	inactive: 105%

Structure (SMILES)	binding response (% of control)
O=c1c2c(C(F)(F)F)cc(C(F)(F)F)nc2[nH]n1-c1ccccc1	inactive: 102%
Cn1c(CN2CCOCC2)nc2cc(NC(=O)COc3ccc([N+](=O)[O-])cc3)ccc21	inconclusive: 80.3%
COc1cccc(-n2c(=S)[nH]c3c(oc4ccccc43)c2=O)c1	inconclusive: 87.5%
COc1cc(NC(=S)Nc2ccccn2)c(OC)cc1Cl	inconclusive: 118%
O=C(c1ccccc1F)N1CCN(S(=O)(=O)c2ccc(S(=O)(=O)N3CCCCCC3)cc2)CC1	inconclusive: 92.7%
COC(=O)c1sccc1NC(=O)c1cnc2cc(C)nn2c1C	inconclusive: 108%
CN(C)CCCN(Cc1ccccc1)C(=S)Nc1ccc(SC(F)F)cc1	inconclusive: 82.6%
CC1(OC(=O)C2CCCC2)C(=O)C=C2C=C(c3ccsc3)N(CCc3ccccn3)C=C2C1=O (centres undefined)	inconclusive: 96%
O=C(NC1CCCCC1)c1ccc(-n2cnnn2)cc1	inconclusive: 83.5%
COc1cccc(/C=N/NC(=S)NC2CC3CCC2C3)c1OC (centres undefined)	inconclusive: 181%
Cc1c(O)ccc2c(CN(C)Cc3ccccc3)cc(=O)oc12	inconclusive: 80.3%
CCOC(=O)c1c(-c2ccc(OC)cc2)csc1/N=C/C1C(=O)CCCC1=O	inconclusive: 88.8%
Cc1ccc2c(CC(=O)O)coc2c1	inactive: 106%
CN(C)CCNc1nc2sc3c(c2c(=O)n1CCc1ccccc1)CCCCC3	inconclusive: 59.4%
O=C(CSc1nc2ccccc2o1)N/N=C/c1ccc(O)c(O)c1	inconclusive: 93.5%
CCn1c2ccccc2c2cc(NC(=O)c3coc(=O)c(Br)c3)ccc21	inconclusive: 81.7%
Cn1cnc([N+](=O)[O-])c1SCC(=O)NN	inconclusive: 123%
CC1(C)CCc2cc(-c3ccnc(=S)[nH]3)ccc2O1	inconclusive: 98.6%
Nc1cc(=O)[nH]c(SCC(=O)N2N=C(c3ccc(Cl)cc3)CC2c2ccco2)n1 (centres undefined)	inconclusive: 125%

Quoted from the entries so far (four entries):
Structure (SMILES)	binding response (% of control)
COC(=O)c1sccc1NC(=O)c1cnc2cc(C)nn2c1C	inconclusive: 108%
CN(C)CCCN(Cc1ccccc1)C(=S)Nc1ccc(SC(F)F)cc1	inconclusive: 82.6%
CC1(OC(=O)C2CCCC2)C(=O)C=C2C=C(c3ccsc3)N(CCc3ccccn3)C=C2C1=O (centres undefined)	inconclusive: 96%
O=C(NC1CCCCC1)c1ccc(-n2cnnn2)cc1	inconclusive: 83.5%
